Results are given in words; binding and its absence hold for the method and conditions named. A result given as binding can be weak or reduced; the word gives no strength.
Target: recombinant soluble cynomolgus monkey LAG-3 (cynomolgus monkey)
Assay: SPR, recombinant soluble LAG-3

binding: binds
B1: anti-LAG-3 antibody agent TSR-033 (antibody, human IgG4 S228P, kappa, V domains shown)
VH: EVQLVQSGAEVKKPGATVKISCKASGFSIKDDYIHWVQQAPGKGLEWMGWIDAMNDDSQYSSKFQGRVTITVDTSTNTAYMKLSSLRSEDTAVYYCTYAFGGYWGQGTTVTVSS
VL: DIVMTQTPLSLSVTPGQPASISCRSSQSLVHSDSNTYLHWYLQKPGQSPQLLIYLVSNRFSGVPDRFSGSGSGTDFTLKISRVEAEDVGVYFCGQSTHVPYAFGGGTKVEIKR
modifications: N-glycosylation at N291 of the heavy chain

Source: patent US20220135670A1
